Measurements taken from paper doi:10.1101/2020.10.05.326181.

Sequences of proteins named here, by UniProt entry; tags and fusion partners are left off. A change or cut given only in a name is not applied to a line headed by its entry.
UniProt Q92547: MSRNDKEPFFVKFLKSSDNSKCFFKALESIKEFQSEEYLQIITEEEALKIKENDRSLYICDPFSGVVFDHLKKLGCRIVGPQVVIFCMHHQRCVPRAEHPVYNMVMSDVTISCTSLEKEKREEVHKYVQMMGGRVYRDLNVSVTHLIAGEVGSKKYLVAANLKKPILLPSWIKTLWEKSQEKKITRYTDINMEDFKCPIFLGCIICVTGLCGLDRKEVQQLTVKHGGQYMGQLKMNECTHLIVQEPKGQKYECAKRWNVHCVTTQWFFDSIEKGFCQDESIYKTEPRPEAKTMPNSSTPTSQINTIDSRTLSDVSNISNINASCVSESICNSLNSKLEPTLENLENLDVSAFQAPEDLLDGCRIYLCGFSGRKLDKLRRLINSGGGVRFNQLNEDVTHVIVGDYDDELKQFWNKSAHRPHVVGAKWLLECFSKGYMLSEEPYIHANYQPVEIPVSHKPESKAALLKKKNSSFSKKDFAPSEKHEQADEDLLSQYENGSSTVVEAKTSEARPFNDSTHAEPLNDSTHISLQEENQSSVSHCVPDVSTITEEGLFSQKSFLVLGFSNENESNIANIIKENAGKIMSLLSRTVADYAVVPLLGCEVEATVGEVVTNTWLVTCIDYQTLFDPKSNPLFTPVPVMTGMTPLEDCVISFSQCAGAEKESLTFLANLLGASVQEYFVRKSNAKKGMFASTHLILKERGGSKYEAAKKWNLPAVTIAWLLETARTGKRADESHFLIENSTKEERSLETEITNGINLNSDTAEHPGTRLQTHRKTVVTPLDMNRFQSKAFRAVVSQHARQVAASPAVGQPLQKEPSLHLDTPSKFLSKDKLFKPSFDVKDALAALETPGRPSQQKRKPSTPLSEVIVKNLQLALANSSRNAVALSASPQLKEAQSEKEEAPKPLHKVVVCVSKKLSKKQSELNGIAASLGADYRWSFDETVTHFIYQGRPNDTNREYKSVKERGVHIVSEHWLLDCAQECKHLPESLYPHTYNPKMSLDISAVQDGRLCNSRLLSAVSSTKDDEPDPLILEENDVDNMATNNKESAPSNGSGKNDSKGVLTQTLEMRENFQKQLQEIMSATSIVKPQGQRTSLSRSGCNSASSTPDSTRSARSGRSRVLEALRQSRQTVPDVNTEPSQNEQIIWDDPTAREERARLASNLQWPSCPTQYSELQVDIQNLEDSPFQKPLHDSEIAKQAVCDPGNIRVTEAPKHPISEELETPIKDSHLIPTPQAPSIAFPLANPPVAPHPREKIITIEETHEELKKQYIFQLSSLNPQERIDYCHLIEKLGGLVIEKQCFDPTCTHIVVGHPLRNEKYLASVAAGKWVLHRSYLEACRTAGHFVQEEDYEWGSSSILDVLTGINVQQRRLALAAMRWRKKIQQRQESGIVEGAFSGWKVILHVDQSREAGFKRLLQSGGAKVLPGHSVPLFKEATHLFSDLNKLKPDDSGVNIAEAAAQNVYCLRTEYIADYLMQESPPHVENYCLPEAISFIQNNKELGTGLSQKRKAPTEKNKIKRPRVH

Columns and labels:
Assay in all cases: proximity labelling
[1] = biological target: Flag-BirA*-TopBP1 WT (human) (UniProt Q92547)
[2] = biological target: Flag-BirA*-TopBP1 W1145R (human) (UniProt Q92547)
[3] = biological target: Flag-BirA*-TopBP1 WT (human) (UniProt Q92547); remark: listed apart in the source

B1: nucleolar protein NOL11 (protein, UniProt Q9H8H0 1-719)
chain: MAALEEEFTLSSVVLSAGPEGLLGVEQSDKTDQFLVTDSGRTVILYKVSDQKPLGSWSVKQGQIITCPAVCNFQTGEYVVVHDNKVLRIWNNEDVNLDKVFKATLSAEVYRILSVQGTEPLVLFKEGAVRGLEALLADPQQKIETVISDEEVIKWTKFFVVFRHPVLIFITEKHGNYFAYVQMFNSRILTKYTLLLGQDENSVIKSFTASVDRKFISLMSLSSDGCIYETLIPIRPADPEKNQSLVKSLLLKAVVSGNARNGVALTALDQDHVAVLGSPLAASKECLSVWNIKFQTLQTSKELPQGTSGQLWYYGEHLFMLHGKSLTVIPYKCEVSSLAGALGKLKHSQDPGTHVVSHFVNWETPQGCGLGFQNSEQSRRILRRRKIEVSLQPEVPPSKQLLSTIMKDSEKHIEVEVRKFLALKQTPDFHTVIGDTVTGLLERCKAEPSFYPRNCLMQLIQTHVLSYSLCPDLMEIALKKKDVQLLQLCLQQFPDIPESVTCACLKIFLSIGDDSLQETDVNMESVFDYSINSVHDEKMEEQTEILQNGFNPEEDKCNNCDQELNKKPQDETKESTSCPVVQKRAALLNAILHSAYSETFLLPHLKDIPAQHITLFLKYLYFLYLKCSENATMTLPGIHPPTLNQIMDWICLLLDANFTVVVMMPEAKRLLINLYKLVKSQISVYSELNKIEVSFRELQKLNQEKNNRGLYSIEVLELF
binding [1]: binds | binding [2]: no binding | binding [3]: binds

Where two headings read alike, the source gives them in different places. These are yes or no findings as the source states them, for the method shown. Binding seen in cells or lysates may run through a third protein. Here binding means that the protein was enriched with, or labelled near, the bait; the list need not be complete. For part of these data: A no says only that the protein was not detected with the bait.
